The other results are listed elsewhere or left out.

The chains behind the UniProt entries cited, without tags or fusion partners. Where a name states a change or a piece, a line headed by the entry shows the natural chain unless it says otherwise.
UniProt Q96RP9: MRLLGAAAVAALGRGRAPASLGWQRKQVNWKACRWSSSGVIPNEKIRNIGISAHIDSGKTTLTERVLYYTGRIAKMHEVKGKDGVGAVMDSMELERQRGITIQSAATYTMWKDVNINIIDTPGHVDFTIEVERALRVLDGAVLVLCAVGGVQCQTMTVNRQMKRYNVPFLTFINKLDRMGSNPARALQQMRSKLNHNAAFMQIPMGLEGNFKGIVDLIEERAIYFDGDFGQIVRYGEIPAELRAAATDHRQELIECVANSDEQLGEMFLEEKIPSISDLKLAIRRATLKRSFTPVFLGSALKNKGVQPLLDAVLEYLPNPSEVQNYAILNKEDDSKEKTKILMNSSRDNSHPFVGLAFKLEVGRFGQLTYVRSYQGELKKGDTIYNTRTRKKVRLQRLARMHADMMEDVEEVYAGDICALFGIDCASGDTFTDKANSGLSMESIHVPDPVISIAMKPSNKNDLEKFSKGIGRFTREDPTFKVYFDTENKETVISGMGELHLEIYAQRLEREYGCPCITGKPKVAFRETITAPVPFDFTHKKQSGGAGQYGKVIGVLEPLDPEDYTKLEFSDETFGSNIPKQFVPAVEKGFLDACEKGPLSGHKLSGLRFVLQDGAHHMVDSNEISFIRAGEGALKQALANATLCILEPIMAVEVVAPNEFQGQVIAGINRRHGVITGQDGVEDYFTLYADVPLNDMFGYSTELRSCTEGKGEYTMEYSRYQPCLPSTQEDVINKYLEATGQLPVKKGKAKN
UniProt O15117, whole entry, looked up: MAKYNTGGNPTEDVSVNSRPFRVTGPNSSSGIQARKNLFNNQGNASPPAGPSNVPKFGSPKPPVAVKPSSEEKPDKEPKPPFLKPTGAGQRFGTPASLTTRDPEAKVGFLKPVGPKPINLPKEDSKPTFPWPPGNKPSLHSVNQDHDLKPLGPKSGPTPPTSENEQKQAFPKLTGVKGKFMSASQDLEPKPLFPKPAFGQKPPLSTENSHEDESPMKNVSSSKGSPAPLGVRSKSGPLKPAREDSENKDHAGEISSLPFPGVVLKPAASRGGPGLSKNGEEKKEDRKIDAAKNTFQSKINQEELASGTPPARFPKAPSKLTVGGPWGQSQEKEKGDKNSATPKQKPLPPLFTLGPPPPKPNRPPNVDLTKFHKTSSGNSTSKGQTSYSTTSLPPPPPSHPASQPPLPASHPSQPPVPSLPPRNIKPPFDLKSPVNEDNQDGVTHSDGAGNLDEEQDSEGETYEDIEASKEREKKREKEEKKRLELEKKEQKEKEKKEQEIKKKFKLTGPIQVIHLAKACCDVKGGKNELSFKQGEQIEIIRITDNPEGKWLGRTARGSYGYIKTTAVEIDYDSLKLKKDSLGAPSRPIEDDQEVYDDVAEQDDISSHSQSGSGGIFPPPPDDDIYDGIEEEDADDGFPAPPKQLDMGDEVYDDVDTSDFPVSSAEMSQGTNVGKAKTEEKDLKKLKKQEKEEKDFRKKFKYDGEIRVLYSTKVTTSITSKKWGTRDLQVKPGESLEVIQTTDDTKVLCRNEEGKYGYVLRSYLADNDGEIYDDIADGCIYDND
UniProt O95166, whole entry, looked up: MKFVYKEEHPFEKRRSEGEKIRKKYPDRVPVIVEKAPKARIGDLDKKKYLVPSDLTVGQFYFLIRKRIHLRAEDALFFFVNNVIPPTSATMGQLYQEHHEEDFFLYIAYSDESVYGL
UniProt P23434: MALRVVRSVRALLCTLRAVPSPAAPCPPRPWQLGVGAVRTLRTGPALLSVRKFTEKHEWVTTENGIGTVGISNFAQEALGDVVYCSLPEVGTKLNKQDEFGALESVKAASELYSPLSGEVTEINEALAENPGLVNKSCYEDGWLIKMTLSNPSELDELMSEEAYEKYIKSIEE
UniProt P41250: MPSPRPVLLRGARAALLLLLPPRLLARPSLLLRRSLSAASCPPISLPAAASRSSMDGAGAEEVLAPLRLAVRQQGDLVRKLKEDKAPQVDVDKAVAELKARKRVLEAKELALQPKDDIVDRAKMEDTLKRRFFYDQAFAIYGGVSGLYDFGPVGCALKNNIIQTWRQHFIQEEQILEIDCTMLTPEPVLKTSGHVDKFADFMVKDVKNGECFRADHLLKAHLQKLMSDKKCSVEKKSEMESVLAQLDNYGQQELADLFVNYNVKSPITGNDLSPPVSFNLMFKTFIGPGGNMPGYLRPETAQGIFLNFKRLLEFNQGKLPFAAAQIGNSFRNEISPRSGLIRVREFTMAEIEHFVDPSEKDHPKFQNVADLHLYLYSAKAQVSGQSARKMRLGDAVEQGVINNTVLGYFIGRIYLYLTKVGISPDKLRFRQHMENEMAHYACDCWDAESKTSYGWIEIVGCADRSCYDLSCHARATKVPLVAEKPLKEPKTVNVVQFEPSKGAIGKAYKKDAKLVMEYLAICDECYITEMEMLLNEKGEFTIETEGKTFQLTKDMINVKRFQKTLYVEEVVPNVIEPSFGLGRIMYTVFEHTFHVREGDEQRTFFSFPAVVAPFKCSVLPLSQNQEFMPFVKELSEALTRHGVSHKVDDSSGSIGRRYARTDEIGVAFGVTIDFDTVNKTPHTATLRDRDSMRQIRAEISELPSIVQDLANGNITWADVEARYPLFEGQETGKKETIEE
UniProt Q8WXD5: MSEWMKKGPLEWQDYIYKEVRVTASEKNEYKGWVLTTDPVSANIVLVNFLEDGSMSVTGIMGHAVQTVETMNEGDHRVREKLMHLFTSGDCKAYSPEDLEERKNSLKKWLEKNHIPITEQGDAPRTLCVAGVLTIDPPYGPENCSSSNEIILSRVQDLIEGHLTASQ
UniProt P34059: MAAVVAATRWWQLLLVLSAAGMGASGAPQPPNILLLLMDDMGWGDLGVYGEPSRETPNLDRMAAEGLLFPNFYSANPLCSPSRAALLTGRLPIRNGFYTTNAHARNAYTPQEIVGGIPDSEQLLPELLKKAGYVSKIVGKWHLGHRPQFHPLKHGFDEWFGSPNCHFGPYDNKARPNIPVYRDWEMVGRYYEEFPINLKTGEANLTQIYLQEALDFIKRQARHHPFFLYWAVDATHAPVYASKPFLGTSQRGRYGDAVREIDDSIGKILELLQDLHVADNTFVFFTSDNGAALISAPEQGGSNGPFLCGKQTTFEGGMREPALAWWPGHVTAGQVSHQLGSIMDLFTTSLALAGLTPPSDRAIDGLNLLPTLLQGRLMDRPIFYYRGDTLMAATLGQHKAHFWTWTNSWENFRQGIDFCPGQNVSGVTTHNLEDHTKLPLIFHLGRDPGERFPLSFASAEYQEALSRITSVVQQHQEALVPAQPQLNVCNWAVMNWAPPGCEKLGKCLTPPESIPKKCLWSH
UniProt Q14376: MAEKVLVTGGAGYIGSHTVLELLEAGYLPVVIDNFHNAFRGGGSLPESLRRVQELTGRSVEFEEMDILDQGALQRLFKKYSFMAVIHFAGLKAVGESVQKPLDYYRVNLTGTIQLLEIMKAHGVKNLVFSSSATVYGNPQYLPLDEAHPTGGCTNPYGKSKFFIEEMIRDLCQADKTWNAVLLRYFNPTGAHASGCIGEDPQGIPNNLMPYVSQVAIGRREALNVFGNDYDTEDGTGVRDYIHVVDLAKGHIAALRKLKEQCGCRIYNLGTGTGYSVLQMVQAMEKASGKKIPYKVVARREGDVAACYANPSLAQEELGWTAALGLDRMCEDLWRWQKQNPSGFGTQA

Compound in this assay: CC1=CC=C(C=C1)SC2=C3C=C(SC3=CN=C2)C(=O)N
Kind of assay: log2 fold change, soluble protein after heating vs DMSO (PISA); higher = thermal stabilisation; K562 lysate, 10 uM; active = over 0.2 and 3.5 SD of the protein, either way, in both replicates (recomputed). Put shortly:
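K562 pellets were dounce-homogenised in PBS pH 7.4 with 1 mM MgCl2, and the crude extract at 1 mg/mL protein was treated with 10 μM compound for 30 min. Aliquots were heated for 3 min across 48°C-58°C, pooled, and brought to 0.5% NP-40 at 4°C; soluble protein was the supernatant after 21,000xg for 90 min. Soluble protein was quantified by TMTpro 16plex LC-MS/MS with channel sums equalised, and reported as log2 fold change in thermal stability against DMSO controls, with values from duplicates.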
For the target GFM1 (UniProt Q96RP9), the log2 fold change is inactive: -0.017.

As for FYB1 isoform 3 (UniProt O15117), the log2 fold change was inactive: -0.013.

With GABARAP (UniProt O95166), the log2 fold change was inactive: 0.

For the target GCSH (UniProt P23434), the log2 fold change is inactive: -0.06.

For GARS1 (UniProt P41250), the log2 fold change was inactive: -0.001.

Regarding GEMIN6 (UniProt Q8WXD5), the log2 fold change is inactive: -0.014.

With GALNS (UniProt P34059), the log2 fold change was inactive: -0.012.

Consider GALE (UniProt Q14376), for which the log2 fold change is inactive: 0.023.

On to FSCN1 (UniProt Q16658), for which the log2 fold change was inactive: 0.01.

The values are drawn from the supplement of paper PMC10849652.
